Reference: PubChem BioAssay AID504764 (Drosophila RNAi Screening Center, 2011)

Test: 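Genes whose knock-down alters Notch-dependent transcription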 (primary screen)
Cells: Drosophila Kc167 cells
Reagent: long dsRNA against Drosophila genes
Duration: about 5 days (4 days dsRNA, then 24 h after transfection)
Conditions: transfection of constitutively active membrane-tethered Notch lacking the extracellular domain, read 24 h later
Measurement: 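Light from a Notch-responsive E(spl)m3 luciferase reporter under active Notch, with control-promoter and no-Notch reporter wells to normalise; raw counts from paired wells a and b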
Direction: induced reporter light, run 1, well a and induced reporter light, run 1, well b: higher = more light from the Notch target reporter with active Notch; control promoter light, run 1, well a and control promoter light, run 1, well b: higher = more light from the viral control promoter (cell number, transfection, viability); uninduced reporter light, run 1, well a: higher = more light from the Notch target reporter without active Notch
Rule for the call: 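Hit if the duplicate-averaged log2 ratio of induced to control-promoter light gives a plate-wise z beyond ±2, or induced to uninduced beyond ±1.8; weak-control or discordant-duplicate wells dropped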
Meaning of the calls: active = modifier hit (raised or lowered Notch signal); inactive = not a hit
In all, the deposit lists about 22,000 reagents; below is an unselected part of those with a known target gene and a result. Of all reagents, 403 (1.9%) are marked active. 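Unnormalised raw counts per well; ratio z-scores behind the hit calls and whether each hit raises or lowers signal are not deposited.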 The numbers tell different reagents against one gene apart. A plus sign joins genes that one reagent is predicted to hit. Not given: the amount of reagent.

target gene	reagent	induced reporter light, run 1, well a	induced reporter light, run 1, well b	control promoter light, run 1, well a	control promoter light, run 1, well b	uninduced reporter light, run 1, well a	Outcome
Fpps (Farnesyl pyrophosphate synthase)	1	1.76e5	1.49e5	1.93e5	1.69e5	13932	inactive
CG5958	1	71565	50470	52735	65645	4310	inactive
LeuRS (Leucyl-tRNA synthetase)	1	1.25e5	1.06e5	1.06e5	1.33e5	7015	inactive
Dci (Dodecenoyl-CoA delta-isomerase)	1	1.97e5	1.66e5	3.01e5	3.32e5	13060	inactive
CG10298	1	86640	98945	91575	76250	5665	inactive
Gr66a (Gustatory receptor 66a)	1	2.03e5	1.82e5	2.03e5	1.75e5	5560	inactive
bw (brown)	1	1.24e5	1.41e5	2.18e5	1.82e5	8800	inactive
bw (brown)	2	2.06e5	1.61e5	1.31e5	1.52e5	14215	inactive
CG4116	1	67320	93090	1.16e5	1.47e5	6415	inactive
Nup153 (Nucleoporin 153kD)	1	64745	69585	56635	41710	6710	inactive
Tektin-A (Tektin A)	1	2.58e5	2.03e5	1.69e5	2.07e5	14630	inactive

2 entries from above, reformatted.
target gene,reagent,"induced reporter light, run 1, well a","induced reporter light, run 1, well b","control promoter light, run 1, well a","control promoter light, run 1, well b","uninduced reporter light, run 1, well a",Outcome
Dci (Dodecenoyl-CoA delta-isomerase),1,1.97e5,1.66e5,3.01e5,3.32e5,13060,inactive
CG10298,1,86640,98945,91575,76250,5665,inactive

More reagents:
target gene	reagent	induced reporter light, run 1, well a	induced reporter light, run 1, well b	control promoter light, run 1, well a	control promoter light, run 1, well b	uninduced reporter light, run 1, well a	Outcome
CG4935	1	1.15e5	1.20e5	1.29e5	1.38e5	10245	inactive
Ir48b (Ionotropic receptor 48b)	1	1.14e5	1.26e5	1.88e5	1.96e5	12185	inactive
CG15922	1	2.01e5	1.83e5	1.58e5	1.82e5	12555	inactive
slif (slimfast)	1	1.12e5	94090	80640	98460	8828	inactive
Srg2 + CG42826	1	85455	90025	93990	37630	10535	inactive
Srg2 + CG42826	2	2.94e5	2.09e5	3.06e5	2.97e5	14550	inactive
Fib (Fibrillarin)	1	1.11e5	1.07e5	93520	92600	6630	inactive
CG6073	1	2.39e5	2.33e5	2.71e5	2.64e5	15145	inactive
Atg13 (Autophagy-related 13)	1	1.09e5	1.35e5	99940	83705	9140	inactive
CG15824	1	1.20e5	96500	96265	56475	8760	inactive
CG34046 (retired record)	1	73460	72185	72260	76875	7155	inactive
CG3534	1	2.36e5	2.65e5	2.26e5	2.32e5	20542	inactive
Stt3A	1	1.41e5	1.10e5	92390	55035	12740	inactive
CG42788	1	2.49e5	2.24e5	2.29e5	2.17e5	17395	inactive
CG42788	2	2.00e5	2.17e5	2.16e5	2.33e5	18985	inactive
CG42788	3	1.95e5	2.37e5	2.12e5	2.27e5	17628	inactive
thw (thawb)	1	58335	78345	59850	71825	5020	inactive
CG3335	1	31600	39090	38135	44300	1782	inactive
Hk (Hyperkinetic)	1	56345	50165	24542	20660	4730	inactive
Hk (Hyperkinetic)	2	33195	24500	9505	9275	8500	inactive
Cdk2 (Cyclin-dependent kinase 2)	1	1.63e5	1.73e5	2.18e5	1.86e5	16685	inactive
CG11037	1	1.33e5	1.33e5	1.27e5	1.60e5	9820	inactive
eca (eclair)	1						active
